We go through one substance from publication PMC7867230.

By UniProt entry, the sequences of proteins in these tests, tags left out. Residues count along the entry.
UniProt P00750, residues 36-562: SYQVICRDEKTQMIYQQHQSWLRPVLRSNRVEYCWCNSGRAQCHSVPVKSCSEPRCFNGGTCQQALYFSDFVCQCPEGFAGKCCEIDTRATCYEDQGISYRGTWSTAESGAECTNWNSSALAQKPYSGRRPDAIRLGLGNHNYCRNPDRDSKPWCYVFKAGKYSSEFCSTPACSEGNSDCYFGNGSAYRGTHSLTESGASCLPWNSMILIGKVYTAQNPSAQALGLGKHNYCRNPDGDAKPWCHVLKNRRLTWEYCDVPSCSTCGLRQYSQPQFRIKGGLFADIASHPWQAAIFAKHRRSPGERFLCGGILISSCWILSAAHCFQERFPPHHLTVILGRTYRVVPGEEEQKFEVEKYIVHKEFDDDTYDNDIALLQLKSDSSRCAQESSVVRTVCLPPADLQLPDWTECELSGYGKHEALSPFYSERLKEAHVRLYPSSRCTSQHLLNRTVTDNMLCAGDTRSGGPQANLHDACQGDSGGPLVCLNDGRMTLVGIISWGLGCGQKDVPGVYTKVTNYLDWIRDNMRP
UniProt P05121, residues 24-402: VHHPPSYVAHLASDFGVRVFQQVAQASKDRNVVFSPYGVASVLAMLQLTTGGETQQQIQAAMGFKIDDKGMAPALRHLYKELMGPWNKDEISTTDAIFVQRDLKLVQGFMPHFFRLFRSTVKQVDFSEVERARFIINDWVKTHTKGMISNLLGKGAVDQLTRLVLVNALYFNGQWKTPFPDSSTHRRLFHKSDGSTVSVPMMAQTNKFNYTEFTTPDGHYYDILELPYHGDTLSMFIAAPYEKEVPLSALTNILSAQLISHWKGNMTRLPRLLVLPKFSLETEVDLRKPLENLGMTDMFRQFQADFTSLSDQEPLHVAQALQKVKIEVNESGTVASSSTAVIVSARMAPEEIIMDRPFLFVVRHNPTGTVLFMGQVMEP

This assay has as its target tissue-type plasminogen activator (tPA) (UniProt P00750). Nature of the assay: SDS-PAGE of the SDS-stable covalent serpin/protease complex; 5 uL of 4.6 uM wild type PAI-1 with 5 uL buffer or compound (PBS pH 7.4, 1% DMSO) 10 min at 37 °C, then 10 uL of 6.6 uM tPA, 30 min at 37 °C; NuPAGE 4-12% Bis-Tris gel, Coomassie, densitometry; row is for the sample without …; both purified.

Results are given in words; binding and its absence hold for the method and conditions named. Some results given as binding are weak or reduced against the parent protein; the word gives no strength.

For the substance “wild type PAI-1 (plasminogen activator inhibitor-1) (from UniProt P05121 24-402)”, the binding entry is “binds”.
